From paper PMC3738515, “HLA-DO as the Optimizer of Epitope Selection for MHC Class II Antigen Presentation” (PLoS ONE, 2013)

Legend:
soluble HLA-DM (human) = assay: fluorescent peptide binding control (Sephadex G-50 spin column, fluorescence); fluorescent peptide incubated with accessory molecules (DM, DO or DM/DO) in the absence of DR1 for over 10 hours at 37°C, citrate-phosphate pH 5.0; both purified
[1] = target: recombinant soluble HLA-DO (human); assay: as above

In the case of CAGFKGEQGPKGEP (fluorescein on the N-terminus) [CII(259–273) peptide], the binding (soluble HLA-DM (human)) is reported as “no binding (tested: 30 µM peptide, 1 µM DM)” and the binding [1] is reported as “no binding (tested: 30 µM peptide, 4 µM DO)”.

These are yes or no findings as the source states them, for the method shown.
